Taken from: PubChem BioAssay AID743454 (Peter MacCallum Cancer Centre, 2014)

- Aim: 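Genes whose loss kills vorinostat-resistant colon cancer cells under vorinostat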 (primary screen)
- Cell system: human HCT116-VR colon cancer cells, selected for vorinostat resistance
- Reagent: siRNA pool against human genes, 40 nM siRNA pool
- Duration: vorinostat for 24 h, read-out about 72 h after transfection
- Conditions: vorinostat at 2.5 µM final
- Read-out: 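Two measures, CellTiter-Fluor viability and luminescent caspase 3/7 activity, each as fold change against same-plate mock wells, mean of duplicates, then screen-wide robust z-score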
- Reading the numbers: viability robust z-score: higher = more viable cells than screen typical; caspase robust z-score: higher = more caspase 3/7 activity than screen typical
- Hit rule: 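Hits are knock-downs in viability class RV1/RV2 or caspase class CA1/CA2, excluding ones that killed cells in the no-drug cell-count arm; hits then retested with single siRNAs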
The whole screen tested about 18,000 reagents; shown is a random part of them. Over the whole deposit, 450 (2.5%) are marked active. 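Single biological run; no consistent viability z cut-off exists, so the class columns, not z-scores, define the calls.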 A number with no mark means an inactive call. No sequences are given here.

With knock-down of AACS, the record shows viability hit class no change; caspase hit class no change; viability robust z-score -1.98; caspase robust z-score 0.29.
With knock-down of FAM193B the results were viability hit class no change; caspase hit class no change; viability robust z-score -0.36; caspase robust z-score 0.44.
MSC showed viability hit class no change; caspase hit class no change; viability robust z-score -0.06; caspase robust z-score 0.38.
FAM53B gave viability hit class no change; caspase hit class no change; viability robust z-score 1.08; caspase robust z-score 0.14.
ABRA showed viability hit class no change; caspase hit class no change; viability robust z-score 0.11; caspase robust z-score -0.79.
After knock-down of CYP2A13, the screen gave viability hit class no change; caspase hit class no change; viability robust z-score 0.14; caspase robust z-score 0.21.
Depletion of PSG11 gave: viability hit class no change; caspase hit class no change; viability robust z-score 0.22; caspase robust z-score -1.04.
TTLL7 showed viability hit class no change; caspase hit class no change; viability robust z-score -0.56; caspase robust z-score -0.99.
UBIAD1 showed viability hit class no change; caspase hit class no change; viability robust z-score -0.1; caspase robust z-score 0.57.
Knock-down of MTX1 came out at: viability hit class no change; caspase hit class no change; viability robust z-score 0.58; caspase robust z-score 3.38.
After knock-down of COL18A1-AS1 the results were viability hit class no change; caspase hit class no change; viability robust z-score -2.37; caspase robust z-score -0.52.

Look-ups from above.
Value for MTX1 under “viability hit class”: no change
CYP2A13, caspase robust z-score = 0.21
Entry for FAM193B in “caspase hit class”: no change

Next records follow:
For UQCRB, the values are viability hit class no change; caspase hit class no change; viability robust z-score 0.92; caspase robust z-score -0.97.
For CAPG, the entry reads viability hit class no change; caspase hit class no change; viability robust z-score -0.5; caspase robust z-score 0.64.
After knock-down of SULT1C4, the record shows viability hit class no change; caspase hit class no change; viability robust z-score 1.31; caspase robust z-score -0.63.
After knock-down of CDH26 the results were viability hit class no change; caspase hit class no change; viability robust z-score -0.26; caspase robust z-score 3.08.
Against RO60 the deposit lists viability hit class no change; caspase hit class no change; viability robust z-score -0.02; caspase robust z-score 0.53.
SDC3 gave viability hit class no change; caspase hit class no change; viability robust z-score 0.1; caspase robust z-score 1.7.
PNPLA7 showed viability hit class no change; caspase hit class no change; viability robust z-score 0.32; caspase robust z-score 0.79.
With knock-down of TGM6, the screen gave viability hit class no change; caspase hit class no change; viability robust z-score -1.02; caspase robust z-score 1.32.
MOB1B scored viability hit class no change; caspase hit class no change; viability robust z-score -1.46; caspase robust z-score -1.33.
USH1C scored viability hit class no change; caspase hit class no change; viability robust z-score 0.9; caspase robust z-score -0.36.
